Reference: patent publication US20110129481A1
These are yes or no findings as the source states them, for the method shown. Some entries that bind do so weakly or less than the wild type.

By UniProt entry, the sequences of proteins in these tests, tags left out. Residues count along the entry.
UniProt P08581, residues 25-1390: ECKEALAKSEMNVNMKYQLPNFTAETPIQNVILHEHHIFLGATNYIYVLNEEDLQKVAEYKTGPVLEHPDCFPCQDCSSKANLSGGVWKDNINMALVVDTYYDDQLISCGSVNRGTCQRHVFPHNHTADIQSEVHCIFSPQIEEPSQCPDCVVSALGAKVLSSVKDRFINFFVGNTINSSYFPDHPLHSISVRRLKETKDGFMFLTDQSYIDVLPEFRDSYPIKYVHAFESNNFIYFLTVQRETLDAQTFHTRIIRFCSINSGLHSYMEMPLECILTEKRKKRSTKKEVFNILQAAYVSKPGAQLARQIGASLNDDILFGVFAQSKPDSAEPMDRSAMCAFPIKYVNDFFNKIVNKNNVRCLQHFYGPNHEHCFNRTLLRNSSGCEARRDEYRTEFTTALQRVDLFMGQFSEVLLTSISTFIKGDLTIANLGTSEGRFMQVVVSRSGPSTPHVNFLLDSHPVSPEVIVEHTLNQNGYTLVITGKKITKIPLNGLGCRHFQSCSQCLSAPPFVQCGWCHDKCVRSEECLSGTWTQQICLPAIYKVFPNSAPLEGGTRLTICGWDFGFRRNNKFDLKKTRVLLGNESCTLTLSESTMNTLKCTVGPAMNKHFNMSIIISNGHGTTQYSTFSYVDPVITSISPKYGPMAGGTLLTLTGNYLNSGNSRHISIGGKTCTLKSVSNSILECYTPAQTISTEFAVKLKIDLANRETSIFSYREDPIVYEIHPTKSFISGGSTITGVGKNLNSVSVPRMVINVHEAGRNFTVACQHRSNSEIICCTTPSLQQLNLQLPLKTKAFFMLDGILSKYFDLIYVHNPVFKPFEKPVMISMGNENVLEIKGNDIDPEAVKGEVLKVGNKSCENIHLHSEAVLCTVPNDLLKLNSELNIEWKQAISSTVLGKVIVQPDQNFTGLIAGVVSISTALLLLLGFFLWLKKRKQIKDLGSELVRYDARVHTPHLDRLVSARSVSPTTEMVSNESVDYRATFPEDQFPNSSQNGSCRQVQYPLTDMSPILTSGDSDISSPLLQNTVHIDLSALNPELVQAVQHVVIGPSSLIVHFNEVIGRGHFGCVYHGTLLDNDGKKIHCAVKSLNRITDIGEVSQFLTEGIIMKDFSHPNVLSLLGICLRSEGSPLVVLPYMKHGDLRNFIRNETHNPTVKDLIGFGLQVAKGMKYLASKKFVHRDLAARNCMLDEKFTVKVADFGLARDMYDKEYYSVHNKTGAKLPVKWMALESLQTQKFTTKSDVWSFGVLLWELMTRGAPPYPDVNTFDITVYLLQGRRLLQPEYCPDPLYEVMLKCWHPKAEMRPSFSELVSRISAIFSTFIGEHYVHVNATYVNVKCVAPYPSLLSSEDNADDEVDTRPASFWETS

Legend:
[1] = target: c-Met in HEK293 cells with tetracycline-regulated expression of c-Met (UniProt P08581); assay: immunoprecipitation from HEK293 lysates, Western blot
[2] = target: c-Met in HEK293 cells with tetracycline-regulated expression of c-Met (UniProt P08581); assay: immunohistochemistry on HEK293 cells with or without tetracycline
[3] = target: c-Met in HEK293 cells with tetracycline-regulated expression of c-Met (UniProt P08581); assay: immunoprecipitation from HEK293 cells (legend of FIG. 2)

Measured: binding

B1: monoclonal antibody AbF24 (antibody, V domains shown)
VH: QIQLVQSGPELKKPGETVKISCKASGYTFTDYSMHWVKQAPGKGLKWMGWINTETGAPTYADDFKGRFAFSLETSASTAYLQINNLKDEDTATYFCARASMISFVYWGQGTLV
VL: DIVMSQSPSSLAVSVGEKITMSCKSSQSLLYSSNQKNYLAWYQQKPGQSPKLLIYWASTRKSGVPDRFTGSGSGTDFTLTISSVKAEDLAVYYCQQYYDYPFTFGSGTK
binds: [1] | [2] | [3]
